The series is described as follows: general procedure: Boc solid-phase peptide synthesis. The note with it: whole synthesis.

As for “CLSQLHSGLFLYQGLLQALEGISPELGPTLDTLQLDVADFATTIWQQMEEL-thioester (where Cys^1 is Acm protected) (CLSQLHSGLFLYQGLLQALEGISPELGPTLDTLQLDVADFATTIWQQMEEL; C-terminal thioester; GRFN 1852 peptide)”, the difficulty met entry is “the non-polymer modified peptide GRFN 1852 is poorly soluble”.

Source of the values: patent US20060173159A1 (priority 2002, published 2006).
